Record: PubChem BioAssay AID1224828 (NIAID, 2016)
Here is a random part of about 17,000 deposited reagents. 762 of them (4.5%) were called active. 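Active calls include both raised and lowered p65 entry, mostly lowered; wells with fewer than 50 cells lack a z-score.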 Raw values are not corrected between plates. A number with no mark means an inactive call.

- Screen: 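Find genes required for NF-kappaB p65 moving into the nucleus after LPS in mouse macrophages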 (primary screen)
- Cell system: mouse RAW264.7 G9 macrophage reporter cells (GFP-p65, Tnf promoter-mCherry)
- Knock-down reagent: siRNA pool against mouse genes, 100 nM
- Time to read-out: 2 days siRNA transfection, then 40 min LPS before fixation
- Challenge: LPS (Salmonella minnesota R595) at 10 ng/ml
- Read-out: 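Microscopy ratio of nuclear to perinuclear-ring GFP-p65 signal, scaled to the plate median; gene score is the average of two replicate robust z-scores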
- Scale: p65 translocation robust z-score: higher = more nuclear NF-kappaB p65 after LPS than the plate median; nuclear/cytoplasmic p65 ratio: higher = more nuclear NF-kappaB p65
- Active means: 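Active if robust z is above 3.3 (negative regulators) or below -1.56, the Tlr4 control median (positive regulators); activity score 50 or more; control wells not called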
- Calls: active = hit (p65 shift raised or lowered); inactive = no clear change

gene knocked down	PubChem SID	p65 translocation robust z-score	nuclear/cytoplasmic p65 ratio, rep 1	nuclear/cytoplasmic p65 ratio, rep 2	low cell count flag
Ccdc159	SID315472846	0.61	1.56	1.46	enough cells to score
Or5w11	SID315480306		0	1.29	fewer than 50 cells per well; well left out of scoring
Elapor2	SID315478855	2.18	1.69	1.89	enough cells to score
Tac2	SID315469565	-0.45	1.45	1.35	enough cells to score
Doc2b	SID315466366	1.64	1.69	1.46	enough cells to score
Pon2	SID315481583	-0.12	1.48	1.39	enough cells to score
Bco1	SID315472040	0.4	1.47	1.6	enough cells to score
Kank3	SID315475735	0.36	1.58	1.64	enough cells to score
Mtrfr	SID315474597	-0.84	1.45	1.35	enough cells to score
Txnrd2	SID315470429	-0.56	1.45	1.09	enough cells to score
Cdhr5	SID315474429	1.29	1.97	1.8	enough cells to score
Ints6	SID315468212	0.56	1.58	1.43	enough cells to score
Actg2	SID315465270	0.34	1.65	1.69	enough cells to score
Zfp260	SID315470432	0.05	1.48	1.2	enough cells to score
Gorasp1	SID315474991	2.34	1.9	1.97	enough cells to score
Il18rap	SID315467441	0.66	1.61	1.43	enough cells to score
Phlda1	SID315469642		1.56	1.11	fewer than 50 cells per well; well left out of scoring
Coq8a	SID315473015	0.32	1.73	1.6	enough cells to score
Agpat4	SID315473477	-0.2	1.58	1.65	enough cells to score
Cyp3a41a	SID315471139	1.18	1.71	2.03	enough cells to score
Tmie	SID315469457		1.31	1.17	fewer than 50 cells per well; well left out of scoring
Mcub	SID315472651		1.25	1.55	fewer than 50 cells per well; well left out of scoring
Chrm3	SID315465966	0.31	1.52	1.66	enough cells to score
Tnfrsf21	SID315476047	-0.38	1.37	1.56	enough cells to score

2 entries already listed, ordered by “nuclear/cytoplasmic p65 ratio, rep 2”, low to high.
gene knocked down	PubChem SID	p65 translocation robust z-score	nuclear/cytoplasmic p65 ratio, rep 1	nuclear/cytoplasmic p65 ratio, rep 2	low cell count flag
Tnfrsf21	SID315476047	-0.38	1.37	1.56	enough cells to score
Chrm3	SID315465966	0.31	1.52	1.66	enough cells to score
